Test results reported in the supplement of paper PMC6078165.
The reference is the same well before dosing, and untreated signal decays as well.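 Fibroblast labels denote human fibroblasts, mainly primary ones from uterus (C12385, HUF), lung (H6013), bone (Hs27A), adrenal (HADF) and skin (WS1), plus mammary HMF and breast cancer-associated Hs343T. Cancer cells are basal-like or mesenchymal-like triple-negative breast cancer lines. A hit is a response shift exceeding 3x replicate standard deviation. The tissue of the other fibroblasts is not given here.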

Test system: MDAMB231
Assay: relative JC-1 red fluorescence (viability) vs pre-drug, coculture with fibroblast (fraction); higher = more viable cancer cells
Procedure: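 JC-1 labelled TNBC cells cocultured 1:1 (1,500 cells each) with CellTrace Violet stained primary or stromal fibroblasts in 384-well plates in FluoroBrite medium, treated with one of 42 anticancer drugs at 0.1, 1, 10 or 100 uM. JC-1 red fluorescence (mitochondrial integrity in cancer cells only) was read by plate reader every 8 h for 72 h. Values are normalised to each well's pre-drug value. The stock of one drug was tenfold lower, so its dose labels may be too high.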

CC(=O)c1c(C)c2cnc(Nc3ccc(N4CCNCC4)cn3)nc2n(C2CCCC2)c1=O [Palbociclib]
relative JC-1 red fluorescence
Settings | 8 h | 16 h | 24 h | 32 h | 40 h | 48 h | 56 h | 64 h | 72 h
0.1 µM, coculture fibroblast: C12385 | 0.781 | 0.74363 | 0.665 | 0.632 | 0.577 | 0.547 | 0.511 | 0.515 | 0.499
0.1 µM, coculture fibroblast: H6013 | 0.888 | 0.81 | 0.76 | 0.7402 | 0.70675 | 0.673 | 0.6566 | 0.641 | 0.6
0.1 µM, coculture fibroblast: H6019 | 0.77 | 0.663 | 0.677 | 0.632 | 0.595 | 0.595 | 0.562 | 0.571 | 0.551
0.1 µM, coculture fibroblast: H6076 | 0.8571 | 0.761 | 0.704 | 0.682 | 0.651 | 0.628 | 0.624 | 0.61 | 0.611
0.1 µM, coculture fibroblast: H6231 | 0.934 | 0.827 | 0.749 | 0.69 | 0.644 | 0.61 | 0.567 | 0.545 | 0.519
0.1 µM, coculture fibroblast: HADF | 0.8926 | 0.8044 | 0.7377 | 0.709 | 0.669 | 0.619 | 0.596 | 0.586 | 0.538
0.1 µM, coculture fibroblast: HCFa | 0.8979 | 0.814 | 0.789 | 0.759 | 0.712 | 0.671 | 0.648 | 0.623 | 0.587
0.1 µM, coculture fibroblast: HCPF | 0.88115 | 0.779 | 0.718 | 0.699 | 0.654 | 0.617 | 0.582 | 0.558 | 0.541
0.1 µM, coculture fibroblast: HHSteC | 0.9213 | 0.856 | 0.802 | 0.747 | 0.689 | 0.658 | 0.628 | 0.608 | 0.574
0.1 µM, coculture fibroblast: HMF | 0.952 | 0.847 | 0.766 | 0.723 | 0.686 | 0.641 | 0.606 | 0.58 | 0.556
0.1 µM, coculture fibroblast: HPFa | 0.93374 | 0.88 | 0.8164 | 0.756 | 0.719 | 0.672 | 0.622 | 0.589 | 0.536
0.1 µM, coculture fibroblast: HUF | 0.837 | 0.731 | 0.748 | 0.617 | 0.56 | 0.546 | 0.504 | 0.508 | 0.488
0.1 µM, coculture fibroblast: Hs5 | 0.856 | 0.7718 | 0.722 | 0.692 | 0.661 | 0.617 | 0.589 | 0.56 | 0.548
0.1 µM, coculture fibroblast: Hs27A | 0.876 | 0.8071 | 0.7678 | 0.7349 | 0.682 | 0.614 | 0.625 | 0.603 | 0.551
0.1 µM, coculture fibroblast: Hs343T | 0.86 | 0.871 | 0.799 | 0.766 | 0.71 | 0.663 | 0.608 | 0.58 | 0.553
0.1 µM, coculture fibroblast: WS1 | 0.762 | 0.667 | 0.631 | 0.567 | 0.521 | 0.493 | 0.459 | 0.458 | 0.443
1 µM, coculture fibroblast: C12385 | 0.812 | 0.758 | 0.745 | 0.709 | 0.667 | 0.645 | 0.613 | 0.619 | 0.608
1 µM, coculture fibroblast: H6013 | 0.916 | 0.8657 | 0.8384 | 0.823 | 0.788 | 0.772 | 0.772 | 0.756 | 0.736
1 µM, coculture fibroblast: H6019 | 0.797 | 0.751 | 0.7038 | 0.685 | 0.6415 | 0.629 | 0.582 | 0.564 | 0.515
1 µM, coculture fibroblast: H6076 | 0.913 | 0.823 | 0.802 | 0.787 | 0.7611 | 0.739 | 0.7244 | 0.7212 | 0.7157
1 µM, coculture fibroblast: H6231 | 0.906 | 0.8235 | 0.7736 | 0.736 | 0.688 | 0.671 | 0.636 | 0.622 | 0.603
1 µM, coculture fibroblast: HADF | 0.903 | 0.854 | 0.83 | 0.796 | 0.765 | 0.736 | 0.732 | 0.723 | 0.674
1 µM, coculture fibroblast: HCFa | 0.899 | 0.8408 | 0.809 | 0.78 | 0.734 | 0.697 | 0.6762 | 0.654 | 0.6228
1 µM, coculture fibroblast: HCPF | 0.933 | 0.864 | 0.833 | 0.828 | 0.781 | 0.76 | 0.747 | 0.726 | 0.711
1 µM, coculture fibroblast: HHSteC | 0.9203 | 0.886 | 0.837 | 0.797 | 0.763 | 0.73 | 0.7 | 0.687 | 0.649
1 µM, coculture fibroblast: HMF | 0.902 | 0.832 | 0.801 | 0.781 | 0.741 | 0.711 | 0.685 | 0.671 | 0.664
1 µM, coculture fibroblast: HPFa | 0.862 | 0.88 | 0.854 | 0.792 | 0.854 | 0.838 | 0.815 | 0.747 | 0.683
1 µM, coculture fibroblast: HUF | 0.926 | 0.842 | 0.828 | 0.756 | 0.693 | 0.684 | 0.632 | 0.621 | 0.604
1 µM, coculture fibroblast: Hs5 | 0.935 | 0.872 | 0.838 | 0.808 | 0.78 | 0.738 | 0.703 | 0.677 | 0.669
1 µM, coculture fibroblast: Hs27A | 0.9318 | 0.8801 | 0.85076 | 0.823 | 0.774 | 0.712 | 0.721 | 0.703 | 0.659
1 µM, coculture fibroblast: Hs343T | 0.831 | 0.864 | 0.805 | 0.771 | 0.709 | 0.666 | 0.625 | 0.609 | 0.589
1 µM, coculture fibroblast: WS1 | 0.7975 | 0.71635 | 0.6777 | 0.63 | 0.599 | 0.5857 | 0.547 | 0.5466 | 0.531
